US10588921B2, “Drug for the treatment of cholesterol accumulation disorders” (NATIONAL UNIVERSITY CORPORATION KUMAMOTO UNIVERSITY, priority 2013, dated 2020)

System: NPC-derived HLCs
Experiment: Microarray, cluster and PCA analysis of HLCs treated with HPCDs
Assay type: cell-based, human
Conditions: HLCs cultured with HPCD 4 days; FIG. 29

Substance: 2-hydroxypropyl-γ-cyclodextrin [HPGCD]
- gene expression patterns of the altered molecular signature: closer to that of normal HLCs than those with HPBCD treatments
